Assay results from article PMC7484783.
No constants are given. Whether binding was seen depends on the method and setting. Binding seen in cells or lysates may run through a third protein. Some binding calls cover weakened binding; strength is not graded here. One block for each molecule: values may come before it.

Key:
[1] = molecular target: T1, Bak (mouse (endogenous in retina)) (UniProt O08734); test: co-IP; Pierce co-IP kit; pre-cleared lysates of retinas of wt or Rac1 cKO mice; precipitated with Bcl-2 or Bak antibody (human IgG as negative control), detected by Beclin1 antibody on western blot
T1 sequence: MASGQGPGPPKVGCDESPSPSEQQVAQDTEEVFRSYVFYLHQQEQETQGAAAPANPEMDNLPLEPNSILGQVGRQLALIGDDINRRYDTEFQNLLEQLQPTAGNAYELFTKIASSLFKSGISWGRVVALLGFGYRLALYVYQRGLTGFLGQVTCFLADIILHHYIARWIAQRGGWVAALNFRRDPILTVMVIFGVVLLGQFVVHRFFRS

[2] = molecular target: T2, Bcl-2 (mouse (endogenous in retina)), P10417; test: as above; conditions: remark: other sources report otherwise
T2 chain: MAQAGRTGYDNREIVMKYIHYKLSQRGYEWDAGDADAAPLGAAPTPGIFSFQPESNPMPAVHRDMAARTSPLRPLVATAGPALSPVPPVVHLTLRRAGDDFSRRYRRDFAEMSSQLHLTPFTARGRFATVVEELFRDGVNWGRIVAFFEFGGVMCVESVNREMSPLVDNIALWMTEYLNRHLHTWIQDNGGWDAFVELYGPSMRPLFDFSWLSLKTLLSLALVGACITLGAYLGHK

binding [1]: binds
Molecule: Beclin1 (from UniProt O88597 1-448)

binding [2]: binds
B1: Beclin1, O88597 1-448 (protein)
chain: MEGSKASSSTMQVSFVCQRCSQPLKLDTSFKILDRVTIQELTAPLLTTAQAKPGETQEEEANSGEEPFIETRQDGVSRRFIPPARMMSTESANSFTLIGEASDGGTMENLSRRLKVTGDLFDIMSGQTDVDHPLCEECTDTLLDQLDTQLNVTENECQNYKRCLEILEQMNEDDSEQLQRELKELALEEERLIQELEDVEKNRKVVAENLEKVQAEAERLDQEEAQYQREYSEFKRQQLELDDELKSVENQVRYAQIQLDKLKKTNVFNATFHIWHSGQFGTINNFRLGRLPSVPVEWNEINAAWGQTVLLLHALANKMGLKFQRYRLVPYGNHSYLESLTDKSKELPLYCSGGLRFFWDNKFDHAMVAFLDCVQQFKEEVEKGETRFCLPYRMDVEKGKIEDTGGSGGSYSIKTQFNSEEQWTKALKFMLTNLKWGLAWVSSQFYNK
